No constants are given. Whether binding was seen depends on the method and setting. Binding seen in cells or lysates may run through a third protein. Some entries that bind do so weakly or less than the wild type. Sequences can lack the tags named with a protein.
T1: GST-RB fusion protein (UniProt P06400)
T1 sequence (looked up): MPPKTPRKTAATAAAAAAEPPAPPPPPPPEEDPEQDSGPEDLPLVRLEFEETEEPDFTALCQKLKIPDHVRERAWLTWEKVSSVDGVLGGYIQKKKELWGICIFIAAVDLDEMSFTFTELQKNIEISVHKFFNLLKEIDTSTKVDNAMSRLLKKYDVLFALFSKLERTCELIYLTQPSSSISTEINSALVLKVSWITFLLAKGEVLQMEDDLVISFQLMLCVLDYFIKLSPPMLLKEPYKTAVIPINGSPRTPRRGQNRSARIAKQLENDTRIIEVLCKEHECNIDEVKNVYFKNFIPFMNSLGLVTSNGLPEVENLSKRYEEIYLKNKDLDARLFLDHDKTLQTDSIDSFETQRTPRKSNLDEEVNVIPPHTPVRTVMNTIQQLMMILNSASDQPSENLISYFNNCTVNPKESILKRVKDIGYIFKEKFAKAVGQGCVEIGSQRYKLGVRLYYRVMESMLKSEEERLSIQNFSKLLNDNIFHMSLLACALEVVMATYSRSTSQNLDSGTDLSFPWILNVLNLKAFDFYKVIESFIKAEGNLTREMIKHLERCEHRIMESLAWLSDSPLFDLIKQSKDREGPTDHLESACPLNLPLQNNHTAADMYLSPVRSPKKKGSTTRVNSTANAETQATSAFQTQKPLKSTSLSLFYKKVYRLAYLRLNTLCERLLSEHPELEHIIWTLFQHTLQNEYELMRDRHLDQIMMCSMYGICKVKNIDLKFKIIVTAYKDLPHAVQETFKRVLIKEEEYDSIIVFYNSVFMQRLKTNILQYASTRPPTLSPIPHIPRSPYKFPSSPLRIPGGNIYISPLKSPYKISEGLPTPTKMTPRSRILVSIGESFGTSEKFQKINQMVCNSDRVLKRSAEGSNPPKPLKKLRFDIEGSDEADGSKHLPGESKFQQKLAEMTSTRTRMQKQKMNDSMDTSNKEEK

Protein sequences, listed by entry. Tags and fused reporters are not part of them.
UniProt Q9Z1E3: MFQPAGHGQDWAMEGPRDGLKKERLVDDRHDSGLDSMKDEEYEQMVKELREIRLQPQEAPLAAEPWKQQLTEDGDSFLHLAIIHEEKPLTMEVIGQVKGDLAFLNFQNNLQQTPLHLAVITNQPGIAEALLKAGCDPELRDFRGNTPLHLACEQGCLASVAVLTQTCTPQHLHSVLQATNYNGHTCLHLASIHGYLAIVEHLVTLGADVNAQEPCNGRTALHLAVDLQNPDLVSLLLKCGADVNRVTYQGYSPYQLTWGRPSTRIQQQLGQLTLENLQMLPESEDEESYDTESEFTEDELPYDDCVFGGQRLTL

B1: mouse PRMT2 (untagged; endogenous in NIH3T3 cells, MEFs, GT1-7 cells and VSMC, or expressed from mouse PRMT2 cDNA in HEK293 cells) (enzyme, UniProt Q9R144 1-448, looked up)
chain: MEAPGEGPCSESQVIPVLEEDPVDYGCEMQLLQDGAQLQLQLQPEEFVAIADYTATDETQLSFLRGEKILILRQTTADWWWGERAGCCGYIPANHLGKQLEEYDPEDTWQDEEYFDSYGTLKLHLEMLADQPRTTKYHSVILQNKESLKDKVILDVGCGTGIISLFCAHHARPKAVYAVEASDMAQHTSQLVLQNGFADTITVFQQKVEDVVLPEKVDVLVSEWMGTCLLFEFMIESILYARDTWLKGDGIIWPTTAALHLVPCSAEKDYHSKVLFWDNAYEFNLSALKSLAIKEFFSRPKSNHILKPEDCLSEPCTILQLDMRTVQVPDLETMRGELRFDIQKAGTLHGFTAWFSVYFQSLEEGQPQQVVSTGPLHPTTHWKQTLFMMDDPVPVHTGDVVHGFCCVTKKSGMEKAHVCLSELGCHVRTRSHVSTELETGSFRSGGDS
B2: PRMT2(1-218) (enzyme)
chain: MATSGDCPRSESQGEEPAECSEAGLLQEGVQPEEFVAIADYAATDETQLSFLRGEKILILRQTTADWWWGERAGCCGYIPANHVGKHVDEYDPEDTWQDEEYFGSYGTLKLHLEMLADQPRTTKYHSVILQNKESLTDKVILDVGCGTGIISLFCAHYARPRAVYAVEASEMAQHTGQLVLQNGFADIITVYQQKVEDVVLPEKVDVLVSEWMGTCLL
modifications: [35S]-methionine label

Tests used:
[1] = molecular target: IκB-α, endogenous in NIH3T3 cells (UniProt Q9Z1E3); test: co-immunoprecipitation from NIH3T3 cell extracts with anti-IκB-α antibody, immunoblot with antibody to PRMT2
GST-RB fusion protein = molecular target: T1, GST-RB fusion protein; test: GST pull-down of S35-labeled in vitro translated protein with GST-RB

Binder | binding [1] | binding (GST-RB fusion protein)
B1 | binds | –
B2 | – | binds
